Assay results as given in patent publication US20060257938A1, “Method of screening for drugs that block ligand binding to a lipid binding protein” (priority 2005, published 2006).

B1: 62N, 72A (protein, listed as Rattus norvegicus)
chain: AFDGTWKVDRNENYEKFMEKMGINVVKRKLGAHDNLKLTITQEGNKFTVKESSNFRNIDVVNELGVDFAYSAADGTELTGTWTMEGNKLVGKFKRVDNGKELIAVREISGNELIQTYTYEGVEAKRIFKKE
modifications: PEPTIDE (1)...(131) wild-type rat intestinal fatty acid binding protein
B2: 62T, 72A (protein, listed as Rattus norvegicus)
chain: AFDGTWKVDRNENYEKFMEKMGINVVKRKLGAHDNLKLTITQEGNKFTVKESSNFRNIDVVTELGVDFAYSAADGTELTGTWTMEGNKLVGKFKRVDNGKELIAVREISGNELIQTYTYEGVEAKRIFKKE
modifications: PEPTIDE (1)...(131) wild-type rat intestinal fatty acid binding protein
B3: 68A, 72A (protein, listed as Rattus norvegicus)
chain: AFDGTWKVDRNENYEKFMEKMGINVVKRKLGAHDNLKLTITQEGNKFTVKESSNFRNIDVVFELGVDAAYSAADGTELTGTWTMEGNKLVGKFKRVDNGKELIAVREISGNELIQTYTYEGVEAKRIFKKE
modifications: PEPTIDE (1)...(131) wild-type rat intestinal fatty acid binding protein
B4: 68C, 72A (protein, listed as Rattus norvegicus)
chain: AFDGTWKVDRNENYEKFMEKMGINVVKRKLGAHDNLKLTITQEGNKFTVKESSNFRNIDVVFELGVDCAYSAADGTELTGTWTMEGNKLVGKFKRVDNGKELIAVREISGNELIQTYTYEGVEAKRIFKKE
modifications: PEPTIDE (1)...(131) wild-type rat intestinal fatty acid binding protein
B5: 68D, 72A (protein, listed as Rattus norvegicus)
chain: AFDGTWKVDRNENYEKFMEKMGINVVKRKLGAHDNLKLTITQEGNKFTVKESSNFRNIDVVFELGVDDAYSAADGTELTGTWTMEGNKLVGKFKRVDNGKELIAVREISGNELIQTYTYEGVEAKRIFKKE
modifications: PEPTIDE (1)...(131) wild-type rat intestinal fatty acid binding protein
B6: 68E, 72A (protein, listed as Rattus norvegicus)
chain: AFDGTWKVDRNENYEKFMEKMGINVVKRKLGAHDNLKLTITQEGNKFTVKESSNFRNIDVVFELGVDEAYSAADGTELTGTWTMEGNKLVGKFKRVDNGKELIAVREISGNELIQTYTYEGVEAKRIFKKE
modifications: PEPTIDE (1)...(131) wild-type rat intestinal fatty acid binding protein
B7: 68G, 72A (protein, listed as Rattus norvegicus)
chain: AFDGTWKVDRNENYEKFMEKMGINVVKRKLGAHDNLKLTITQEGNKFTVKESSNFRNIDVVFELGVDGAYSAADGTELTGTWTMEGNKLVGKFKRVDNGKELIAVREISGNELIQTYTYEGVEAKRIFKKE
modifications: PEPTIDE (1)...(131) wild-type rat intestinal fatty acid binding protein
B8: 68I, 72A (protein, listed as Rattus norvegicus)
chain: AFDGTWKVDRNENYEKFMEKMGINVVKRKLGAHDNLKLTITQEGNKFTVKESSNFRNIDVVFELGVDIAYSAADGTELTGTWTMEGNKLVGKFKRVDNGKELIAVREISGNELIQTYTYEGVEAKRIFKKE
modifications: PEPTIDE (1)...(131) wild-type rat intestinal fatty acid binding protein
B9: 68L, 72A (protein, listed as Rattus norvegicus)
chain: AFDGTWKVDRNENYEKFMEKMGINVVKRKLGAHDNLKLTITQEGNKFTVKESSNFRNIDVVFELGVDLAYSAADGTELTGTWTMEGNKLVGKFKRVDNGKELIAVREISGNELIQTYTYEGVEAKRIFKKE
modifications: PEPTIDE (1)...(131) wild-type rat intestinal fatty acid binding protein
B10: 68M, 72A (protein, listed as Rattus norvegicus)
chain: AFDGTWKVDRNENYEKFMEKMGINVVKRKLGAHDNLKLTITQEGNKFTVKESSNFRNIDVVFELGVDMAYSAADGTELTGTWTMEGNKLVGKFKRVDNGKELIAVREISGNELIQTYTYEGVEAKRIFKKE
modifications: PEPTIDE (1)...(131) wild-type rat intestinal fatty acid binding protein
B11: 68N, 72A (protein, listed as Rattus norvegicus)
chain: AFDGTWKVDRNENYEKFMEKMGINVVKRKLGAHDNLKLTITQEGNKFTVKESSNFRNIDVVFELGVDNAYSAADGTELTGTWTMEGNKLVGKFKRVDNGKELIAVREISGNELIQTYTYEGVEAKRIFKKE
modifications: PEPTIDE (1)...(131) wild-type rat intestinal fatty acid binding protein
B12: 68Q, 72A (protein, listed as Rattus norvegicus)
chain: AFDGTWKVDRNENYEKFMEKMGINVVKRKLGAHDNLKLTITQEGNKFTVKESSNFRNIDVVFELGVDQAYSAADGTELTGTWTMEGNKLVGKFKRVDNGKELIAVREISGNELIQTYTYEGVEAKRIFKKE
modifications: PEPTIDE (1)...(131) wild-type rat intestinal fatty acid binding protein
B13: 68S, 72A (protein, listed as Rattus norvegicus)
chain: AFDGTWKVDRNENYEKFMEKMGINVVKRKLGAHDNLKLTITQEGNKFTVKESSNFRNIDVVFELGVDSAYSAADGTELTGTWTMEGNKLVGKFKRVDNGKELIAVREISGNELIQTYTYEGVEAKRIFKKE
modifications: PEPTIDE (1)...(131) wild-type rat intestinal fatty acid binding protein
B14: 68T, 72A (protein, listed as Rattus norvegicus)
chain: AFDGTWKVDRNENYEKFMEKMGINVVKRKLGAHDNLKLTITQEGNKFTVKESSNFRNIDVVFELGVDTAYSAADGTELTGTWTMEGNKLVGKFKRVDNGKELIAVREISGNELIQTYTYEGVEAKRIFKKE
modifications: PEPTIDE (1)...(131) wild-type rat intestinal fatty acid binding protein
B15: 68V, 72A (protein, listed as Rattus norvegicus)
chain: AFDGTWKVDRNENYEKFMEKMGINVVKRKLGAHDNLKLTITQEGNKFTVKESSNFRNIDVVFELGVDVAYSAADGTELTGTWTMEGNKLVGKFKRVDNGKELIAVREISGNELIQTYTYEGVEAKRIFKKE
modifications: PEPTIDE (1)...(131) wild-type rat intestinal fatty acid binding protein
B16: 68Y, 72A (protein, listed as Rattus norvegicus)
chain: AFDGTWKVDRNENYEKFMEKMGINVVKRKLGAHDNLKLTITQEGNKFTVKESSNFRNIDVVFELGVDYAYSAADGTELTGTWTMEGNKLVGKFKRVDNGKELIAVREISGNELIQTYTYEGVEAKRIFKKE
modifications: PEPTIDE (1)...(131) wild-type rat intestinal fatty acid binding protein
B17: 70C, 72A (protein, listed as Rattus norvegicus)
chain: AFDGTWKVDRNENYEKFMEKMGINVVKRKLGAHDNLKLTITQEGNKFTVKESSNFRNIDVVFELGVDFACSAADGTELTGTWTMEGNKLVGKFKRVDNGKELIAVREISGNELIQTYTYEGVEAKRIFKKE
modifications: PEPTIDE (1)...(131) wild-type rat intestinal fatty acid binding protein
B18: 70M, 72A (protein, listed as Rattus norvegicus)
chain: AFDGTWKVDRNENYEKFMEKMGINVVKRKLGAHDNLKLTITQEGNKFTVKESSNFRNIDVVFELGVDFAMSAADGTELTGTWTMEGNKLVGKFKRVDNGKELIAVREISGNELIQTYTYEGVEAKRIFKKE
modifications: PEPTIDE (1)...(131) wild-type rat intestinal fatty acid binding protein
B19: 72C (protein, listed as Rattus norvegicus)
chain: AFDGTWKVDRNENYEKFMEKMGINVVKRKLGAHDNLKLTITQEGNKFTVKESSNFRNIDVVFELGVDFAYSCADGTELTGTWTMEGNKLVGKFKRVDNGKELIAVREISGNELIQTYTYEGVEAKRIFKKE
modifications: PEPTIDE (1)...(131) wild-type rat intestinal fatty acid binding protein
B20: 72D (protein, listed as Rattus norvegicus)
chain: AFDGTWKVDRNENYEKFMEKMGINVVKRKLGAHDNLKLTITQEGNKFTVKESSNFRNIDVVFELGVDFAYSDADGTELTGTWTMEGNKLVGKFKRVDNGKELIAVREISGNELIQTYTYEGVEAKRIFKKE
modifications: PEPTIDE (1)...(131) wild-type rat intestinal fatty acid binding protein
B21: 72E (protein, listed as Rattus norvegicus)
chain: AFDGTWKVDRNENYEKFMEKMGINVVKRKLGAHDNLKLTITQEGNKFTVKESSNFRNIDVVFELGVDFAYSEADGTELTGTWTMEGNKLVGKFKRVDNGKELIAVREISGNELIQTYTYEGVEAKRIFKKE
modifications: PEPTIDE (1)...(131) wild-type rat intestinal fatty acid binding protein
B22: 102Y, 72A (protein, listed as Rattus norvegicus)
chain: AFDGTWKVDRNENYEKFMEKMGINVVKRKLGAHDNLKLTITQEGNKFTVKESSNFRNIDVVFELGVDFAYSAADGTELTGTWTMEGNKLVGKFKRVDNGKEYIAVREISGNELIQTYTYEGVEAKRIFKKE
modifications: PEPTIDE (1)...(131) wild-type rat intestinal fatty acid binding protein
B23: 104D1, 72A (protein, listed as Rattus norvegicus)
chain: AFDGTWKVDRNENYEKFMEKMGINVVKRKLGAHDNLKLTITQEGNKFTVKESSNFRNIDVVFELGVDFAYSAADGTELTGTWTMEGNKLVGKFKRVDNGKELIDVREISGNELIQTYTYEGVEAKRIFKKE
modifications: PEPTIDE (1)...(131) wild-type rat intestinal fatty acid binding protein

Test: Baseline fluorescence ratio Ro of probe in absence of analyte
Conditions: average baseline fluorescence ratio Ro of the clone probe; substitutions with respect to SEQ ID NO: 2

Point of comparison: B19, AvgOfRo 0.30. Against it:
- B1 — lower, 0.20
- B2 — lower, 0.24
- B3 — lower, 0.23
- B4 — higher, 0.58
- B5 — higher, 0.38
- B6 — higher, 0.36
- B7 — lower, 0.23
- B8 — lower, 0.22
- B9 — lower, 0.21
- B10 — lower, 0.19
- B11 — higher, 0.33
- B12 — the same, 0.30
- B13 — lower, 0.21
- B14 — lower, 0.18
- B15 — lower, 0.20
- B16 — lower, 0.17
- B17 — higher, 0.43
- B18 — lower, 0.27
- B20 — higher, 0.47
- B21 — higher, 0.57

Same assay, conditions: baseline fluorescence ratio of probe

Molecule B9 has a Ro of 0.207.

Same assay, conditions: baseline fluorescence ratio of probe, no fatty acid

Point of comparison: B22, AvgOfRo 0.72. Against it:
- B23 — lower, 0.65

Molecule B22 has a Ro of 0.719.
